In article PMC2859380 one finds binding data, which are given here for seven substances.

Amino acid sequences for entries named in this document (tags omitted). A change or cut given only in a name is not applied to a line headed by its entry.
UniProt Q9VKW8: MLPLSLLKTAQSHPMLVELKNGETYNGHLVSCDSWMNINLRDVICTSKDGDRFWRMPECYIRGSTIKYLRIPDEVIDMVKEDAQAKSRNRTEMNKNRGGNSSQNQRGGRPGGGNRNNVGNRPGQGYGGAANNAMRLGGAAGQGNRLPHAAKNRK
UniProt Q9VK69: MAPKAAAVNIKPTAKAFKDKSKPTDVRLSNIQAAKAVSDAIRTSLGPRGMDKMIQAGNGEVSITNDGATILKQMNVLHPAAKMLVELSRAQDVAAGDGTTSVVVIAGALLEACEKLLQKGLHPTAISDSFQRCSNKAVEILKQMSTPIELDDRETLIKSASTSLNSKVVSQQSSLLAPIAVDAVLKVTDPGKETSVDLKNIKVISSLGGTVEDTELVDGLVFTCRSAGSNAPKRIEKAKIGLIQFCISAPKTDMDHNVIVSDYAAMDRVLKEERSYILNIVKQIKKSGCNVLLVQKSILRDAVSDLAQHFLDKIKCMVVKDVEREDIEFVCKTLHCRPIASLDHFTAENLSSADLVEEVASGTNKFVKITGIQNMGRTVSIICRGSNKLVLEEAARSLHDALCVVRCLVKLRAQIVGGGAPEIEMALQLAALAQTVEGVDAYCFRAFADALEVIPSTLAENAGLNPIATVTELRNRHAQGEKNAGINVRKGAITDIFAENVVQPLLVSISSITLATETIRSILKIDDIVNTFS
UniProt Q9W087: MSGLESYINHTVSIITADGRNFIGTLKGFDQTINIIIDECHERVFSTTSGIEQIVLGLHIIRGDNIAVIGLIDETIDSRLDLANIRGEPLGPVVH
UniProt Q9VRT7: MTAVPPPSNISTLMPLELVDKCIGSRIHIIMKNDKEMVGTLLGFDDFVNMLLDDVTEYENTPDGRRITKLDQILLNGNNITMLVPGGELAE
UniProt Q9W2P5: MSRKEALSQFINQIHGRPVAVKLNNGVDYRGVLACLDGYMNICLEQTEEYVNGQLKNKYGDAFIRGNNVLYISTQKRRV
UniProt Q9VX15: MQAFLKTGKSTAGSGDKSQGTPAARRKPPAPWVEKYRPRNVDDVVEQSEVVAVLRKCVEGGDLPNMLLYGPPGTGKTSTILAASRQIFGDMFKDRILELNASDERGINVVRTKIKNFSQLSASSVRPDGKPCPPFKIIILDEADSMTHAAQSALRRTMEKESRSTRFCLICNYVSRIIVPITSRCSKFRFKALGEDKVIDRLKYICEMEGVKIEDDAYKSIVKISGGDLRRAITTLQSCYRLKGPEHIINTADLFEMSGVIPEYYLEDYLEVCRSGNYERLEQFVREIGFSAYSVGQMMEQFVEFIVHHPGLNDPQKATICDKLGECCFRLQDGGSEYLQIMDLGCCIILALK
UniProt Q9U9Q1: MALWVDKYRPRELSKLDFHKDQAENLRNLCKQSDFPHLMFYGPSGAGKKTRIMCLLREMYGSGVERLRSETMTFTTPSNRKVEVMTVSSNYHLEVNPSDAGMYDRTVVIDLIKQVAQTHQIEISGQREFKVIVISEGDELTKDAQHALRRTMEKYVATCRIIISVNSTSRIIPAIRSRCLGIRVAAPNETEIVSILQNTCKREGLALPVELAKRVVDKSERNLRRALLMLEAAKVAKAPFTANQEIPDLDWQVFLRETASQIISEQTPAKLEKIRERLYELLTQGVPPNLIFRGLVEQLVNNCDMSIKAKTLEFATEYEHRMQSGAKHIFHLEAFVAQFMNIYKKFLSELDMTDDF
UniProt Q8IP97: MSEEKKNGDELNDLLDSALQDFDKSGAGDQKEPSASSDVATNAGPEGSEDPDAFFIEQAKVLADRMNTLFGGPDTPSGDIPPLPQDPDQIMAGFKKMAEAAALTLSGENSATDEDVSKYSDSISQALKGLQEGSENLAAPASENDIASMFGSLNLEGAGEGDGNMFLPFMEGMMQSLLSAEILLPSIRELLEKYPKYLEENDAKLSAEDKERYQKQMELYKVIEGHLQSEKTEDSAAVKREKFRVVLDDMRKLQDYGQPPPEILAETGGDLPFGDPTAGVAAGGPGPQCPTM
UniProt Q9VTW6: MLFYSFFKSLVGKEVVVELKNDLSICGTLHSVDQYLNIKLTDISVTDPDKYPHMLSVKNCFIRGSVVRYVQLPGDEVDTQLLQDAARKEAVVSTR
UniProt Q9VJI7: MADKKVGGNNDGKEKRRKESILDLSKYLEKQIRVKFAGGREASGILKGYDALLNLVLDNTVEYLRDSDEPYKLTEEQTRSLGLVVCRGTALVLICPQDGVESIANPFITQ
UniProt P53034: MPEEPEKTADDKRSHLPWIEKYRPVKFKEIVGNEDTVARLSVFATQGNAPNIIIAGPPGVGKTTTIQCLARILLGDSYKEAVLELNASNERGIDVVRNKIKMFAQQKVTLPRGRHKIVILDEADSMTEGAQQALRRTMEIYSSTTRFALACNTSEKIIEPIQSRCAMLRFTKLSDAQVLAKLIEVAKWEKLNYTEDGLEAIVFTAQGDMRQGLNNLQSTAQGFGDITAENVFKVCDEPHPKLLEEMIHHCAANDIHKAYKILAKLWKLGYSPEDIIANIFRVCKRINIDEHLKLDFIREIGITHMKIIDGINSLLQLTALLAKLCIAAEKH

Results are given in words; binding and its absence hold for the method and conditions named. Binding seen in cells or lysates may run through a third protein. A result given as binding can be weak or reduced; the word gives no strength.

Assay in all cases: co-IP; pairs tagged with FLAG or HA, co-expressed in Kc167 cells; lysate in radioimmunoprecipitation assay buffer (50 mM Tris pH 7.4, 150 mM NaCl, 0.1% SDS, 0.5% sodium deoxycholate, 1% NP40); immunoprecipitated with anti-FLAG, membranes probed with anti-HA, stripped, probed with anti-FLAG
Test [1] addresses CG17768 (Drosophila melanogaster) (UniProt Q9VKW8).
In test [2] the target is CG5525 (Drosophila melanogaster) (UniProt Q9VK69).
For test [3], the target named is CG2021 (Drosophila melanogaster) (UniProt Q9W087).
For test [4], the target named is CG6610 (Drosophila melanogaster) (UniProt Q9VRT7).
Test [5] concerns the target T1, SmD3 (Drosophila melanogaster) (UniProt O44437).
T1 sequence: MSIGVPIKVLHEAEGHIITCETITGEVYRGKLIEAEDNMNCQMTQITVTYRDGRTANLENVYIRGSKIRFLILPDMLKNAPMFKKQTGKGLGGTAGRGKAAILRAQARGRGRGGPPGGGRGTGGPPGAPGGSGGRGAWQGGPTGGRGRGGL

Test [6] addresses T2, spn-A (Drosophila melanogaster) (UniProt Q27297).
T2 sequence: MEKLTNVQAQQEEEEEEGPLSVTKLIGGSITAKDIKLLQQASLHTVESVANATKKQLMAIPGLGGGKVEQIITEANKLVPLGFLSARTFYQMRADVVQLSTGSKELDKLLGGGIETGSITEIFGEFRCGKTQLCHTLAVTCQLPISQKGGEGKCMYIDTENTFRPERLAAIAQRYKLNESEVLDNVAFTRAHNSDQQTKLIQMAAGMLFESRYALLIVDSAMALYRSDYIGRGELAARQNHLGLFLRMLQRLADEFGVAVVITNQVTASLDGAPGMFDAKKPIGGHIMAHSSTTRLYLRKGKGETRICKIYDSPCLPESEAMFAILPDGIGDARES

Test [7] concerns the target CG9344 (Drosophila melanogaster) (UniProt Q9W2P5).
Test [8] addresses CG8142 (Drosophila melanogaster) (UniProt Q9VX15).
Test [9] deals with RfC38 (Drosophila melanogaster) (UniProt Q9U9Q1).

Turning to CG2021 (from UniProt Q9W087), in [1], the binding result is reported as “binds”.
Regarding CG5325 (from UniProt Q8IP97), the binding entry in test [2] was “binds”.
Turning to CG9344 (from UniProt Q9W2P5), the binding result in test [3] and in test [4] was “binds” throughout.
Take CG10418 (from UniProt Q9VTW6): the binding result is listed as “no binding” in [1], “binds” in test [4] and “no binding” in test [5].
Take CG12703 (Drosophila melanogaster): in test [6], the binding result is recorded as “binds”.
Take LSm7 (from UniProt Q9VJI7): the binding result in [1], in [3], in test [4], in test [7] and in [5] was “binds” each time.
As to RfC4 (from UniProt P53034 1-331), the binding entry in test [8] and in [9] was “binds” each time.
